# From PubChem BioAssay AID588497 (NMMLSC, 2011)
# The whole screen tested about 360,000 compounds, of which about 780 (0.22%) were called active. The shares of active, inactive and inconclusive entries below differ from those in the screen. No stated cut-off is given here; in the data, active means inhibition above about 35% (passing the limit was not always enough); inconclusive means no clear call, values can overlap the other calls.
# Tested on: Botulinum neurotoxin type F light chain protease (Clostridium botulinum)
# Experiment: BoNT/F light chain protease inhibitors, primary screen, biochemical, flow cytometry, MLPCN library (AID 588497); further: plate controls were buffer without enzyme for full effect and enzyme alone for no effect
# Conditions: Multiplex microsphere protease cleavage assay, at 10 µM, active compounds read high
row,SMILES,inhibition
1,Cn1c(=O)n(C)c2cc(NC(=O)COc3ccccc3)ccc21,inconclusive: -4.2%
2,CCn1cc(CCC(=O)NCCN2CCOCC2)c2ccccc21,inconclusive: -5.9%
3,CCCS(=O)(=O)N1CCCC(C(=O)Oc2ccc(C)c(C)c2)C1 (centres undefined),inconclusive: -42.8%
4,CCOc1ccc(CCn2c(-c3ccco3)nc3ccccc3c2=O)cc1OCC,inactive: -5.6%
5,CCOc1ccccc1CNCCO,inconclusive: -13.8%
6,CCN(CC(=O)Nc1ccccc1C(F)(F)F)C(=O)c1ccccc1SCC(=O)N1CCCC1,inconclusive: -21.6%
7,CC1CCN(c2ccc(NC(=O)C3CCCN3S(=O)(=O)c3ccc(F)cc3)cc2)CC1 (centres undefined),inconclusive: -39.6%
8,CC1CCCN(C(=O)COC(=O)c2cc(Br)ccc2O)C1 (centres undefined),inactive: -7.7%
9,O=C(Nc1ccc(Nc2ccccc2)cc1)c1ccc(Cl)c([N+](=O)[O-])c1,inconclusive: -38.5%
10,CCOC(=O)C1CCN(S(=O)(=O)c2cnc[nH]2)CC1,inconclusive: -3%
11,COc1ccc(/C(O)=C2/C(=O)C(=O)N(CCCC(=O)O)C2c2ccc(OC)cc2)cc1 (centres undefined),inconclusive: -10.2%
12,CCOC(=O)Cn1c(C(F)(F)F)nc2nc(Cl)c(Cl)nc21,inactive: -4.1%
13,COc1ccc(Cn2c(=O)c3[nH]cnc3n(-c3ccccc3C)c2=O)cc1,inconclusive: 116%
14,Cc1ocnc1C(=O)Nc1ccc(Cl)cc1,inactive: -4.2%
15,O=C(CC(c1ccccc1)c1ccccc1)NCCOCc1ccccc1,inconclusive: 20.6%
16,O=[N+]([O-])c1ccc(S(=O)(=O)Nc2ccc3c(c2)OCCO3)cc1,inconclusive: -41.5%
17,O=C(Nc1cccc(C(=O)O)c1)/C(=C\c1ccccc1)NC(=O)c1ccco1,inactive: 0.4%
18,CC(=O)Nc1c(F)cc(Br)cc1F,inconclusive: 21.6%
19,CC(C)CCN1CCN(CC(c2ccccc2)c2ccccc2)CC1CCO (centres undefined),inactive: -4.9%
20,CCn1c(=O)c2cc(C(=O)NCC(OC)OC)sc2c2ccccc21,inactive: 5.8%

# Exported as tab-separated lines: two of the compounds above
row	SMILES	inhibition
2	CCn1cc(CCC(=O)NCCN2CCOCC2)c2ccccc21	inconclusive: -5.9%
3	CCCS(=O)(=O)N1CCCC(C(=O)Oc2ccc(C)c(C)c2)C1 (centres undefined)	inconclusive: -42.8%

# (list continues)

row,SMILES,inhibition
1,COc1ccc(NC(C)(C)c2nnnn2-c2c(C)cccc2C)cc1,inconclusive: 154%
2,O=c1c2ccccc2ncn1Cc1ccc2c(c1)OCO2,inconclusive: 11.5%
3,Cc1cc(C)n(CC(O)Cn2c(C)c(C)c3ccccc32)n1 (centres undefined),active: 34.7%
4,FC(F)(F)c1ccc2c(c1)[nH]c(=S)n2C1CC1,inactive: -2%
5,CCCOc1ccc(/C=C/C(=O)NC2CCCCC2)cc1,inactive: -16%
6,C=CCN(C(=O)c1cccc(S(=O)(=O)N2CCN(C)CC2)c1)c1nc(-c2ccccc2)cs1,inconclusive: 14.2%
7,Cc1ccc(C)c(NC(=O)C2C3C=CC(O3)C2C(=O)O)c1 (centres undefined),inconclusive: -0.4%
8,CNS(=O)(=O)c1cc(O)c2c(S(=O)(=O)NC)cccc2c1,inconclusive: -36.6%
9,CC(C)c1cc(C(=O)N/N=C/c2c[nH]c3ccccc23)n[nH]1,inconclusive: -115%
10,c1ccc2c(c1)CSc1ccccc1N2,inconclusive: -4.1%
11,CCCn1c(=O)c(C(=O)N/N=C/c2ccc(F)cc2)c(O)c2ccccc21,inconclusive: -30.1%
12,COc1ccc(OC)c(NC(=O)CSCC(=O)O)c1,inactive: 6.6%
13,CC(OC(=O)/C=C/c1cccs1)C(=O)Nc1ccc(C(N)=O)cc1 (centres undefined),inactive: -4.3%
14,O=C1NC(=O)C(CCc2ccncc2)(Cc2ccc3c(c2)OCO3)C(=O)N1CCc1ccccc1 (centres undefined),inconclusive: -21.5%
15,O=C(O)C(O)(c1ccccc1)C1CCCCC1 (centres undefined),inconclusive: -1%
16,CCCN(CC(=O)Nc1ccccc1C)C(=O)c1ccc(-c2ccc(C(C)=O)cc2)o1,inconclusive: 14.1%
17,COc1ccc(-c2cc(=O)oc3c(C)c(OCC(=O)Nc4cccnc4)ccc23)cc1,inactive: 2%
18,CCOCCN(C(=O)c1ccccc1Cl)c1cccc(C)c1C,inconclusive: -14.9%
19,Cc1c(CCO)c(=O)n(-c2ccccc2)n1S(=O)(=O)c1ccc(F)cc1,inconclusive: 2.1%
20,Cc1nn(-c2ccccc2)c(C)c1C1C(C#N)=C(N)Oc2n[nH]c(C)c21 (centres undefined),active: 35.8%

row,SMILES,inhibition
1,Cc1ccc2oc(C(=O)N3CCC(O)(c4cccc(C(F)(F)F)c4)CC3)c(C)c2c1,inconclusive: 2.5%
2,CCN(CC)c1ccc2cc(-c3nc(-c4cc5ccccc5oc4=O)cs3)c(=O)oc2c1,inactive: 22.8%
3,CCCn1c(C(O)c2ccc(OC)c(OC)c2)nc2ccccc21 (centres undefined),inconclusive: -17.8%
4,O=C(NCCN1CCOCC1)c1ccc2c(c1)N(Cc1ccc(F)cc1)C(=O)CS2,inactive: -4.8%
5,Cc1ccccc1C(=O)NNc1ccc(-c2csnn2)cc1,inconclusive: -0.7%
6,CCOc1ccc2nc(SCC(=O)NCc3ccc(S(N)(=O)=O)cc3)[nH]c2c1,inconclusive: -41.7%
7,COc1cccc(/C=N/Nc2ccc([N+](=O)[O-])cc2)c1O,inconclusive: 5.1%
8,O=C(/C(N=Nc1cccc(C(F)(F)F)c1)=C(/O)c1cccs1)C(F)(F)F,inconclusive: 57%
9,O=C(Nc1ccccc1)c1cn(CCBr)cn1,inconclusive: -11.3%
10,CCN(CC)CCOC(=O)c1ccc(NC(=O)c2cccc(C)c2[N+](=O)[O-])cc1,inactive: -6.1%
11,CCCCC(=O)Nc1nnc(SCC(=O)NCC2CCCO2)s1 (centres undefined),inconclusive: -7%
12,Cc1nn(S(=O)(=O)c2ccc(Cl)cc2)c(C)c1S(=O)(=O)N1CCOCC1,inactive: -0.9%
13,CCC1(C)CC(C(N)=S)CCO1 (centres undefined),inconclusive: -108%
14,CC(CN(C)C1CCN(C)CC1)c1ccccc1 (centres undefined),inconclusive: 38.5%
15,CCC(C)c1ccc(NC(=O)c2ccco2)cc1 (centres undefined),inconclusive: 2.3%
16,COc1ccc(C(=O)CSc2nnc(CNc3ccc(C)cc3C)n2Cc2ccco2)cc1,inactive: -5.8%
17,O=C(NN1C(=O)C2C3c4ccccc4C(c4ccccc43)C2C1=O)C1CC1 (centres undefined),inactive: -1%
18,Cc1ccc(C(=O)N/C(=C\c2cn(C)c3ccccc23)C(=O)OCCN(C)C)cc1,inconclusive: 59.2%
19,C/C(CC(=O)Nc1ccc([N+](=O)[O-])cc1)=N\NC(=O)c1ccccc1O,inconclusive: 10.3%
